1 substance from article PMC3940611 can be followed below.

Sequences of proteins named here, by UniProt entry; tags and fusion partners are left off.
UniProt P56546: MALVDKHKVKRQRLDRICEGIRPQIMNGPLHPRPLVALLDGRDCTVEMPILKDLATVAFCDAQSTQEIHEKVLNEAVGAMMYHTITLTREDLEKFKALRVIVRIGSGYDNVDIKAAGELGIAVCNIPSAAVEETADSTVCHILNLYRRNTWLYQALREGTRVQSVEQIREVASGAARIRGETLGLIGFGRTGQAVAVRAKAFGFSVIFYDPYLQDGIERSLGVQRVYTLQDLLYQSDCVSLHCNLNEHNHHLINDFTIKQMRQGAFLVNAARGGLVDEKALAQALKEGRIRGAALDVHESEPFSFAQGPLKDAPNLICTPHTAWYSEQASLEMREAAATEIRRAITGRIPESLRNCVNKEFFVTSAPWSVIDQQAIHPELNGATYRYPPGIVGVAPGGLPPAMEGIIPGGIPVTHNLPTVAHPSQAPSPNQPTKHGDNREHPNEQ

No constants are given. Whether binding was seen depends on the method and setting. In cells and extracts the contact can be indirect. Here binding means that the protein was enriched with, or labelled near, the bait; the list need not be complete. Sequences can lack the tags named with a protein.

This test concerns the target T1, eGFP-Zscan4c fusion protein (mouse) (UniProt Q80VJ6).
T1 sequence: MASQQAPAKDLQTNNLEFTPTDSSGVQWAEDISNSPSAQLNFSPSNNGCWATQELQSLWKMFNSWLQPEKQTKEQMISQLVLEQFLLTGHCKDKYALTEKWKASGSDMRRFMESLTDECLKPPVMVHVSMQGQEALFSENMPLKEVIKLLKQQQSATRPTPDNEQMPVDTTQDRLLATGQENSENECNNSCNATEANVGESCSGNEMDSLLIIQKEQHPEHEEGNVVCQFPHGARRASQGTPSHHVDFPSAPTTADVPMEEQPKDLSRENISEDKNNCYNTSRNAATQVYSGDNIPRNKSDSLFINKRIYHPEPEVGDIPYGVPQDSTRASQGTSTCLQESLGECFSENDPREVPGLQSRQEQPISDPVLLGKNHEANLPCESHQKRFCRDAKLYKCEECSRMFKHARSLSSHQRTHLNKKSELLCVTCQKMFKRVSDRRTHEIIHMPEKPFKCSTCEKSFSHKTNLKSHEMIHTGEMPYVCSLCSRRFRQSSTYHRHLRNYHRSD
In words: affinity purification with mass spectrometry; eGFP-Zscan4c induced with Dox for 24 h in R1 ESCs; cytosolic and nuclear extracts exchanged into IP buffer (50 mM Na2HPO4, 150 mM NaCl, pH 7.4); GFP-Trap-A beads 1-3 h at 4°C; glycine pH 2.5 elution; SDS-PAGE, Coomassie bands enriched over uninduced cells excised, LC-MSMS, Mascot.

Take “C-Terminal Binding Protein-2 (CtBP2) (from UniProt P56546 1-445)”: the binding result was “binds”.
